According to publication PMC7862700:
This is a selection; strong and weak results do not stand in their true shares. For part of these data: At the low end of the ranking, values are background and their order means little. This is one part of the list. For part of these data: Construct or isoform of the protein are uncertain.

Sequences of proteins named here, by UniProt entry; tags and fusion partners are left off. A change or cut given only in a name is not applied to a line headed by its entry.
UniProt P32519: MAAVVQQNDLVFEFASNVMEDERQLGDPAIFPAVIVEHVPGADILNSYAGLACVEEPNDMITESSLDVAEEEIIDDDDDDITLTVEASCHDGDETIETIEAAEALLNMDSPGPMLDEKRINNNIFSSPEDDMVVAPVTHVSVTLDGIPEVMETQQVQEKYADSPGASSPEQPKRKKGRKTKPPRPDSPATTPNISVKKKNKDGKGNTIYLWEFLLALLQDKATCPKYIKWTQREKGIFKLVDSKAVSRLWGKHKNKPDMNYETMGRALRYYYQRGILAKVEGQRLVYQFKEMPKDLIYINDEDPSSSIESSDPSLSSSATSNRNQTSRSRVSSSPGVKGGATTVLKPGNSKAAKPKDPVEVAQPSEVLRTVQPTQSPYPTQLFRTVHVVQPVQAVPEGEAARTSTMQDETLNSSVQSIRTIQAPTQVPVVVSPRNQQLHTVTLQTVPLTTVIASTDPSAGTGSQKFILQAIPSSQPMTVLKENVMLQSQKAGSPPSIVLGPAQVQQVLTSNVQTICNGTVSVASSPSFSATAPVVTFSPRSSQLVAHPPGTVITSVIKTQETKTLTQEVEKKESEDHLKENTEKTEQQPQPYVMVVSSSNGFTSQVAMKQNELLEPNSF
UniProt P50549: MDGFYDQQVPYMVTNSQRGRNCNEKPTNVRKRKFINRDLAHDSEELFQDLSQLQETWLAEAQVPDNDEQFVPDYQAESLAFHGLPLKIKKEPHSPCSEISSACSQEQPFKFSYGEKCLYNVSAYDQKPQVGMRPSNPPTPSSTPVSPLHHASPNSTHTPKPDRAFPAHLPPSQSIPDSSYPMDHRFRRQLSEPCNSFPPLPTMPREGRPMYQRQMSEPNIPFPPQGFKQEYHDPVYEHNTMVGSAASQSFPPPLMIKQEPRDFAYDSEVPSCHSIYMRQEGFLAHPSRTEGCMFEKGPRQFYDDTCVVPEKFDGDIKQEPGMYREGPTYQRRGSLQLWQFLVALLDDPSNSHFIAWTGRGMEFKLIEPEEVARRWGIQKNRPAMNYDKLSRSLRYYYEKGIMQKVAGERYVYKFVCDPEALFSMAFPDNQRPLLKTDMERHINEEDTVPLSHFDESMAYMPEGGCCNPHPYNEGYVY

Legend:
Test in all cases: DAPPL (digital affinity profiling via proximity ligation, sequencing)
Details in all cases: 10 mM Tris-HCl pH 7.5, 50 mM NaCl, 1 mM DTT, 4% glycerol, room temperature, 30 min; GST-TFs on glutathione beads, 16-mer random dsDNA library, 0.1% …; high values mean tight binding; double strand, one strand shown; scale: fold enrichment (6-mer frequency, TF over GST control)
ERG = target: T1, ERG (UniProt P11308)
T1 sequence: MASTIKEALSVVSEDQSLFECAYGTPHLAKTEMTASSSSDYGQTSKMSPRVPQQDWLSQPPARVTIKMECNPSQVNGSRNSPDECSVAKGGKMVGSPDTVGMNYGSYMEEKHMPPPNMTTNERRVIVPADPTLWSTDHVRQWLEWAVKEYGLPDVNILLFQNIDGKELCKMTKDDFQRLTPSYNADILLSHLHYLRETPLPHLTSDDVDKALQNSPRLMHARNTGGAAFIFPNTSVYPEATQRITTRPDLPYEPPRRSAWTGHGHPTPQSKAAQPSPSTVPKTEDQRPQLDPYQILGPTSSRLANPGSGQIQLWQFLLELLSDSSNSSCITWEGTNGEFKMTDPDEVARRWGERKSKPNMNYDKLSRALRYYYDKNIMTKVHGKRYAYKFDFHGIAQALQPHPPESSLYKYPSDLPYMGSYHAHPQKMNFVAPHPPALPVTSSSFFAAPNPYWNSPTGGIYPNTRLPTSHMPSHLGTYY

ELF1 = ELF1 (UniProt P32519)
ELK4 = target: T2, ELK4 (UniProt P28324-2)
T2 sequence: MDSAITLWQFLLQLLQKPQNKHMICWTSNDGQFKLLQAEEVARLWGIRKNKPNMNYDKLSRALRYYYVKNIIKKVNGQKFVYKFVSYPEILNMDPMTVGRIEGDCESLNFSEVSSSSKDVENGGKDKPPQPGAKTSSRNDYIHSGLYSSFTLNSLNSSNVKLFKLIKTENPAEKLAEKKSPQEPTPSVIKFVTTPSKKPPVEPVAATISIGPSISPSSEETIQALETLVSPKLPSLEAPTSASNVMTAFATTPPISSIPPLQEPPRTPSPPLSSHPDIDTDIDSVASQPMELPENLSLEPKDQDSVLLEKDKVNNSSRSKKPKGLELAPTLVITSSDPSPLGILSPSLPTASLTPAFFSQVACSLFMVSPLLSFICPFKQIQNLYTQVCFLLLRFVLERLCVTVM

ETV4 = target: T3, ETV4 (UniProt P43268)
T3 sequence: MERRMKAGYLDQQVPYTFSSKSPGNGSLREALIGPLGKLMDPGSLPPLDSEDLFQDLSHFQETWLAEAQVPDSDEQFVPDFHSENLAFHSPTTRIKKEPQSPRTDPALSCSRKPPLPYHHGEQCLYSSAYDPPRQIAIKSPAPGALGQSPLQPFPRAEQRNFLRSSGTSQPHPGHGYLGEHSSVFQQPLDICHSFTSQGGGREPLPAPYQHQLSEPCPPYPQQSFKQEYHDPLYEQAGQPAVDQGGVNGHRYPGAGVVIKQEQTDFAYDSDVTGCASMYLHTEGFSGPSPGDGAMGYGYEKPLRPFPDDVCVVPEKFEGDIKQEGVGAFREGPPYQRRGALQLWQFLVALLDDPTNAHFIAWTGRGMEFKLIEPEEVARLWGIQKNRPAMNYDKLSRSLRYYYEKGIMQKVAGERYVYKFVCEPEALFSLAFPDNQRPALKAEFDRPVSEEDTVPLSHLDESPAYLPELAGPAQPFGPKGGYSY

ETV1 = ETV1 (UniProt P50549)
ERF = target: T4, ERF (UniProt P50548)
T4 sequence: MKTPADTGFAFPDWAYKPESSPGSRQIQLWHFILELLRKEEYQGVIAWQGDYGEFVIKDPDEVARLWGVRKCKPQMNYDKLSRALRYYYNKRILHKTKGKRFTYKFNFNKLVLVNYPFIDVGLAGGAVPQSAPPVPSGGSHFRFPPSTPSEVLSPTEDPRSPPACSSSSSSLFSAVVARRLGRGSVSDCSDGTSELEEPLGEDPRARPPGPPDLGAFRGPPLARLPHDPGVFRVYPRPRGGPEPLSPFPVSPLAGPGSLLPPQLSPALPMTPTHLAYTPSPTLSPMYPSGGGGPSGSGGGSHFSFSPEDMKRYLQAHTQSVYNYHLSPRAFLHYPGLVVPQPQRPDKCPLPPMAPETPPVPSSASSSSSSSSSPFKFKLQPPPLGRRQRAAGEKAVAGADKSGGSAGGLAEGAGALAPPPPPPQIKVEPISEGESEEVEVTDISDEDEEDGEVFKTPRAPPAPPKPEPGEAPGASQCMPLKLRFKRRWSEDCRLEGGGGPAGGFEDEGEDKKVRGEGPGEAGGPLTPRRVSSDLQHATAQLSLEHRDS

| Sequence | binding signal (ERG) | binding signal (ELF1) | binding signal (ELK4) | binding signal (ETV4) | binding signal (ETV1) | binding signal (ERF) |
| --- | --- | --- | --- | --- | --- | --- |
| TAGAGT | 0.751 | 0.75 | 0.874 | 0.74 | 0.771 | 0.795 |
| CAGGTT | 0.662 | 0.674 | 0.685 | 0.617 | 0.64 | 0.66 |
| GACACA | 0.948 | 0.975 | 0.895 | 0.903 | 0.963 | 0.925 |
| CGGGAC | 0.576 | 0.569 | 0.53 | 0.557 | 0.547 | 0.515 |
| GATCGT | 0.438 | 0.442 | 0.423 | 0.427 | 0.467 | 0.434 |
| GCGCGG | 0.836 | 0.828 | 0.905 | 0.857 | 0.835 | 0.773 |
| TGCGTG | 0.633 | 0.599 | 0.667 | 0.598 | 0.598 | 0.677 |
| GGAGGT | 0.351 | 0.318 | 0.31 | 0.344 | 0.366 | 0.325 |
| GTGTCG | 0.625 | 0.622 | 0.642 | 0.571 | 0.625 | 0.571 |
| GTGAGT | 0.14 | 0.114 | 0.138 | 0.119 | 0.136 | 0.132 |
| GTCGAA | 0.634 | 0.631 | 0.717 | 0.618 | 0.674 | 0.626 |
| GGGTAC | 0.883 | 0.97 | 0.957 | 0.951 | 0.91 | 0.981 |
| GTCGGG | 0.245 | 0.206 | 0.207 | 0.203 | 0.211 | 0.233 |
| TGCAGT | 0.771 | 0.838 | 0.942 | 0.777 | 0.773 | 0.845 |
| ACTGTG | 0.527 | 0.527 | 0.526 | 0.527 | 0.483 | 0.556 |
| TGAGCA | 0.919 | 0.827 | 0.824 | 0.833 | 0.805 | 0.858 |
| GAACGT | 0.422 | 0.406 | 0.389 | 0.386 | 0.424 | 0.406 |
| AGACAT | 0.804 | 0.826 | 0.778 | 0.831 | 0.852 | 0.824 |
| ATGGAG | 0.556 | 0.541 | 0.503 | 0.572 | 0.587 | 0.618 |
| CGGAGT | 0.341 | 0.299 | 0.346 | 0.307 | 0.335 | 0.326 |
| AAGGAG | 0.351 | 0.333 | 0.355 | 0.349 | 0.334 | 0.372 |
| ACCGAG | 0.819 | 0.765 | 0.817 | 0.809 | 0.754 | 0.709 |
| TCGTGC | 0.779 | 0.788 | 0.831 | 0.707 | 0.743 | 0.743 |
| AGAGAG | 0.499 | 0.547 | 0.517 | 0.508 | 0.508 | 0.551 |

A different layout for some results above.
Sequence	binding signal (ERG)	binding signal (ELF1)	binding signal (ELK4)	binding signal (ETV4)	binding signal (ETV1)	binding signal (ERF)
GGAGGT	0.351	0.318	0.31	0.344	0.366	0.325
GTCGAA	0.634	0.631	0.717	0.618	0.674	0.626
ATGGAG	0.556	0.541	0.503	0.572	0.587	0.618

More records follow.

| Sequence | binding signal (ERG) | binding signal (ELF1) | binding signal (ELK4) | binding signal (ETV4) | binding signal (ETV1) | binding signal (ERF) |
| --- | --- | --- | --- | --- | --- | --- |
| GAGCAT | 0.764 | 0.751 | 0.75 | 0.813 | 0.719 | 0.675 |
| GGGCGC | 0.663 | 0.653 | 0.646 | 0.641 | 0.693 | 0.654 |
| CACAGT | 0.705 | 0.793 | 0.89 | 0.683 | 0.735 | 0.772 |
| GTCGGT | 0.293 | 0.291 | 0.335 | 0.271 | 0.312 | 0.295 |
| AGATCG | 0.465 | 0.49 | 0.469 | 0.477 | 0.43 | 0.513 |
| TGTAGT | 0.907 | 0.907 | 0.97 | 0.86 | 0.945 | 0.89 |
| AGGTCA | 0.709 | 0.709 | 0.809 | 0.724 | 0.735 | 0.77 |
| CACCGT | 0.645 | 0.637 | 0.688 | 0.658 | 0.616 | 0.747 |
| CCATGT | 0.768 | 0.805 | 0.995 | 0.834 | 0.778 | 0.911 |
| TCGTGA | 0.33 | 0.325 | 0.366 | 0.324 | 0.328 | 0.331 |
| GAGTGC | 0.667 | 0.678 | 0.75 | 0.7 | 0.723 | 0.783 |
| AGACGG | 0.361 | 0.348 | 0.362 | 0.343 | 0.373 | 0.374 |
| AGGGTC | 0.87 | 0.877 | 0.962 | 0.866 | 0.855 | 0.936 |
| AGCGCA | 0.94 | 0.939 | 0.998 | 0.907 | 0.928 | 0.907 |
| TAGGTG | 0.888 | 0.847 | 0.89 | 0.887 | 0.939 | 0.83 |
| GGGCCG | 0.596 | 0.6 | 0.59 | 0.61 | 0.579 | 0.667 |
| CAGCCA | 0.814 | 0.855 | 0.924 | 0.803 | 0.79 | 0.837 |
| GACGTC | 0.945 | 0.827 | 0.778 | 0.842 | 0.853 | 0.896 |
| AGTGAG | 0.275 | 0.235 | 0.238 | 0.228 | 0.256 | 0.278 |
| CAGGGG | 0.543 | 0.588 | 0.535 | 0.584 | 0.512 | 0.634 |
| GGGTTA | 0.755 | 0.835 | 0.816 | 0.826 | 0.787 | 0.756 |
| AGCCGC | 0.881 | 0.895 | 0.905 | 0.902 | 0.842 | 0.958 |
| GAGTTA | 0.558 | 0.585 | 0.597 | 0.619 | 0.591 | 0.592 |
